Results as given in PubChem BioAssay AID2685 (National Center for Advancing Translational Sciences (NCATS), 2010).
This is one part of the list. Further columns of the screen follow, without active or inactive calls. The list favours compounds with an active or inconclusive main result. Words in brackets tell the shape of the fitted curve; partial curves, single points and poor fits give uncertain potencies.

Experiment: qHTS Assay for Lipid Storage Modulators in Drosophila S3 Cells;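 on cell number change: cells counted by Cell Tracker Red CMTPX staining in the red channel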
Conditions: BODIPY lipid droplet fluorescence, 18-24 h; for cell number change: measured here: cell count max response, cells fed with added oleic acid
How it was run: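 Drosophila S3 cells got compounds at several concentrations plus oleic acid (400 uM solution). Laser-scanning cytometry with 488 nm excitation read lipid droplets at 500-530 nm and cells at 575-640 nm. Percent activity was relative to 20 uM Triacsin C.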

[1] = measured here: cell number channel AC50, cells fed with added oleic acid
[2] = measured here: lipid fluorescence (Fed channel) AC50, cells fed with added oleic acid

SMILES: CCOC(=O)C1=C(C)N=C2SC(C)C(=O)N2C1c1cccc(F)c1 (configuration not stated)
- cell number change: -9.06%

SMILES: C=CCn1cc(CN2CCC(C(=O)Nc3cccc(-c4cccc(F)c4)c3)CC2)c(C)n1
- cell number change: 27.9%
- AC50 [1]: 1.84 µM [rising, full curve, poor fit]
- AC50 [2]: 6.51 µM [rising, partial curve, poor fit]

SMILES: Cc1cccc(OCCCn2c(CCNC(=O)C(C)C)nc3ccccc32)c1
- cell number change: -30.9%
- AC50 [1]: 29.1 µM [falling, single point]
- AC50 [2]: 29.1 µM [falling, single point]

SMILES: Cc1[nH]c2ccccc2c1C(=O)COC(=O)c1nccnc1N
- cell number change: 5.39%

SMILES: COc1ccccc1N1CCN(CCCn2c(=S)[nH]c3ccccc3c2=O)CC1
- cell number change: 18.1%
- AC50 [1]: 0.0146 µM [rising, full curve, poor fit]

SMILES: COc1cc(C2C(C#N)=C(N)Oc3c2c(-c2ccccc2)nn3-c2ccccc2)cc(OC)c1OC (configuration not stated)
- AC50 [1]: 6.51 µM [rising, partial curve, poor fit]
- AC50 [2]: 7.31 µM [falling, partial curve, poor fit]

SMILES: O=C(Nc1ccccn1)c1cc2cc([N+](=O)[O-])ccc2s1
- cell number change: 23.6%
- AC50 [2]: 5.17 µM [rising, partial curve, poor fit]

SMILES: COc1ccccc1NS(=O)(=O)c1cc(NC(=O)CCc2nc3ccccc3c(=O)[nH]2)ccc1C
- cell number change: 24.3%
- AC50 [2]: 1.64 µM [rising, partial curve]

SMILES: CCOc1ccc(NC(=O)CN(C)C(=O)c2cccc(S(=O)(=O)N3CCCC3)c2)cc1OCC
- cell number change: 11.6%

SMILES: COC(=O)c1c(C)[nH]c(C(=O)NCc2ccco2)c1C
- cell number change: 82.9%
- AC50 [1]: 29.1 µM [rising, single point]
- AC50 [2]: 16.4 µM [rising, single point]

SMILES: CCOC(=O)N1CCN(S(=O)(=O)c2ccc3c(c2)CCN3C(=O)CC)CC1
- cell number change: 16.5%

SMILES: COc1ccc(NC(=O)C2CCCO2)cc1Cl (configuration not stated)
- cell number change: 17.7%
- AC50 [2]: 29.1 µM [falling, single point]

SMILES: CC(=O)Cc1nsc(Nc2cccc(C)c2)n1
- cell number change: -62.8%
- AC50 [1]: 25.9 µM [falling, partial curve, poor fit]
- AC50 [2]: 13 µM [falling, partial curve]

SMILES: CC(C)(C)OC(=O)N[C@@H](C(=O)OC(C)(C)C)c1ccc(Br)cc1
- cell number change: -40.3%
- AC50 [1]: 16.4 µM [falling, single point]

SMILES: COCCN(C(=O)C1CC1)c1nnc(-c2cccc(C)c2)s1
- cell number change: 0.01%
- AC50 [2]: 3.66 µM [rising, full curve]

SMILES: COc1ccc(CNC(=O)CN(c2ccc(C)cc2)S(=O)(=O)c2c(C)nn(C)c2C)cc1
- cell number change: 11.8%
- AC50 [2]: 29.1 µM [rising, single point]

SMILES: O=C(COC(=O)CNS(=O)(=O)c1c(Cl)cccc1Cl)Nc1ccccc1Sc1ccccc1
- cell number change: 50%
- AC50 [1]: 29.1 µM [rising, single point]

SMILES: CCOC(=O)C1=C(Cc2ccc(F)cc2)C(=O)c2ccccc2C1=O
- cell number change: -97.1%
- AC50 [1]: 23.1 µM [falling, single point]
- AC50 [2]: 20.6 µM [falling, partial curve]

SMILES: COC(=O)CS(=O)(=O)c1cc(Br)cc2c1N(C(C)=O)CC2
- AC50 [1]: 3.66 µM [rising, partial curve, poor fit]
- AC50 [2]: 1.46 µM [rising, partial curve, poor fit]

SMILES: CC(=O)Nc1ccc(SCC(=O)Nc2cc(C(C)(C)C)nn2-c2ccccc2)cc1
- cell number change: -11.3%

SMILES: Cc1cc(OCC(=O)N(Cc2ccco2)c2c(N)n(Cc3ccccc3)c(=O)[nH]c2=O)ccc1Cl
- cell number change: -34.4%
- AC50 [1]: 0.164 µM [falling, full curve, poor fit]

SMILES: CCn1ncc([N+](=O)[O-])c1C(=O)NC1CCCCC1
- cell number change: 13%
- AC50 [2]: 29.1 µM [rising, single point]

SMILES: COc1ccc(OC)c(S(=O)(=O)NCCOC23CC4CC(CC(C4)C2)C3)c1
- cell number change: 27.3%
- AC50 [2]: 16.4 µM [rising, single point]

SMILES: CC(C)CC(=O)Nc1ccc(S(=O)(=O)N2CCCC2)cc1
- cell number change: 5.96%

SMILES: COc1ccc(-n2c(SCc3cn4c(C)cccc4n3)nc3ccccc3c2=O)cc1OC
- AC50 [1]: 0.206 µM [rising, partial curve]
- AC50 [2]: 0.259 µM [rising, partial curve]

SMILES: CC(CN1CCCCC1)C(=O)NN (configuration not stated)
- cell number change: -25.8%
- AC50 [1]: 1.46 µM [falling, full curve, poor fit]
- AC50 [2]: 14.6 µM [falling, partial curve, poor fit]

SMILES: CCOc1ccc(NC(=O)CSc2ncn[nH]2)c([N+](=O)[O-])c1
- cell number change: 113%
- AC50 [1]: 5.8 µM [rising, full curve]

SMILES: CSc1ccc(C2C(C(=O)c3ccco3)=C(O)C(=O)N2c2nnc(SC)s2)cc1 (configuration not stated)
- AC50 [2]: 6.51 µM [falling, single point]

SMILES: CN(CCOc1ccc(Br)cc1)CC(O)c1ccccc1 (configuration not stated)
- AC50 [1]: 4.11 µM [rising, single point]
- AC50 [2]: 6.51 µM [rising, single point]

SMILES: Brc1ccc(CSc2ncnc3nc[nH]c23)cc1
- cell number change: -19.2%
- AC50 [2]: 32.6 µM [falling, single point]

SMILES: CCOc1ccc(/C=N/NC(=O)c2ccc(F)cc2)cc1CN1CC2CC(C1)c1cccc(=O)n1C2 (configuration not stated)
- cell number change: 10.1%
- AC50 [2]: 0.058 µM [rising, single point]

SMILES: O=C(Nc1ccc(-c2csc(Nc3ccccc3)n2)cc1)c1cc([N+](=O)[O-])cc(C(F)(F)F)c1
- cell number change: -53.9%
- AC50 [1]: 29.1 µM [falling, single point]
- AC50 [2]: 18.4 µM [falling, single point]

SMILES: CCOc1ccc(/C=C/c2nc(C#N)c(NCCCOC)o2)cc1
- AC50 [2]: 11.6 µM [falling, partial curve]

SMILES: Cc1cc(NC(=O)CSc2nnc(CNc3ccc(F)cc3)n2C2CCCCC2)no1
- cell number change: 11.3%
- AC50 [2]: 0.58 µM [rising, full curve]

SMILES: NS(=O)(=O)c1ccc(CCNC(=O)c2ccco2)cc1
- cell number change: -6.61%
- AC50 [2]: 0.164 µM [falling, full curve]

SMILES: CNC(=O)COC(=O)/C=C/c1cccc(F)c1
- cell number change: 12.8%
- AC50 [1]: 0.00461 µM [falling, full curve, poor fit]

SMILES: O=C(Cn1c(=O)oc2cc(S(=O)(=O)N3CCCCCC3)ccc21)NC1CCCCCCC1
- cell number change: -8.39%

SMILES: Cc1cccc(NC(=O)c2cccc3c2-c2ccccc2C3=O)n1
- cell number change: -17.8%
- AC50 [2]: 0.355 µM [falling, single point]

SMILES: CC(Nc1ccc(Cl)c(Cl)c1)C(=O)NN (configuration not stated)
- cell number change: 10.7%
- AC50 [1]: 1.84 µM [rising, single point]

SMILES: COCc1ccc(C(=O)N2CCCCC2C(=O)Nc2ccc(-n3nc(C)cc3C)cc2)o1 (configuration not stated)
- cell number change: 12.4%
- AC50 [2]: 0.00461 µM [rising, full curve, poor fit]

SMILES: COC(=O)c1ccc(CNC(=O)CN(CCC(C)C)S(=O)(=O)c2ccc3c(c2)OCCO3)cc1
- cell number change: -27.1%
- AC50 [1]: 0.651 µM [falling, full curve, poor fit]

SMILES: O=C(O)C1CCCCC1C(=O)Nc1ccc(S(=O)(=O)N2CCCCCC2)cc1 (configuration not stated)
- cell number change: 21.8%
- AC50 [2]: 0.058 µM [falling, full curve, poor fit]

SMILES: Cc1ccc(NC(=O)N2CCC(O)(c3ccc(Cl)cc3)CC2)cc1
- cell number change: -51.1%
- AC50 [1]: 11.6 µM [falling, partial curve]

SMILES: CCc1nnc(NC(=O)c2ccc(-c3ccc(F)cc3)o2)s1
- cell number change: 19.8%
- AC50 [1]: 0.291 µM [rising, full curve, poor fit]
- AC50 [2]: 1.3 µM [rising, full curve]

SMILES: Cc1ccc(C(=O)Oc2ccc(C(=O)COC(=O)c3cnccn3)cc2)cc1
- cell number change: -134%
- AC50 [1]: 20.6 µM [falling, partial curve]
- AC50 [2]: 20.6 µM [falling, partial curve]

SMILES: Cc1ccc(C(=O)CSc2ccc(-c3ccncc3)nn2)cc1
- cell number change: -18.1%
- AC50 [2]: 0.0058 µM [falling, full curve, poor fit]

SMILES: Cc1nc(NC(=O)CSc2nnnn2Cc2ccccc2)sc1C
- cell number change: -2.31%
- AC50 [2]: 29.1 µM [falling, single point]

SMILES: O=C1N(c2ccccc2C(F)(F)F)O[C@@]1(c1ccccc1)C1CCCC1
- cell number change: 3.43%
- AC50 [1]: 0.731 µM [falling, single point]
- AC50 [2]: 1.03 µM [falling, single point]

SMILES: COc1ccc(-n2c(=S)[nH]c3cc(C(=O)NCCCN4CCOCC4)ccc3c2=O)cc1
- cell number change: 15.8%

SMILES: O=C(Cc1cccc2ccccc12)N/N=C/c1ccc(Sc2nc3ccccc3s2)o1
- cell number change: -0.369%
- AC50 [1]: 0.259 µM [falling, partial curve, poor fit]

SMILES: COc1cc(OC)c(NC2=NCCCCC2)cc1Cl
- cell number change: 1.89%
- AC50 [2]: 29.1 µM [rising, single point]

SMILES: Cc1nn(Cc2ccccc2)c(Cl)c1/C=C/C(=O)OCC(=O)N1CCCC1=O
- cell number change: 70.4%
- AC50 [1]: 29.1 µM [rising, single point]

SMILES: COc1ccc(/C([O-])=C(/C(=S)Nc2ccc(C)c(C)c2)n2c[n+](C)c3ccccc32)cc1OC
- cell number change: 16.1%
- AC50 [2]: 0.164 µM [falling, full curve, poor fit]

SMILES: COc1cccc(N2C(=O)N(c3ccccc3Cl)C3CS(=O)(=O)CC32)c1 (configuration not stated)
- cell number change: -90.2%
- AC50 [1]: 25.9 µM [falling, partial curve, poor fit]
- AC50 [2]: 0.651 µM [falling, single point]

SMILES: CC1CCN(C(=O)c2nc[nH]c2C(=O)OCCNC(=O)OC(C)(C)C)CC1
- cell number change: -3.84%

SMILES: Cc1ccc(CNCc2ccccc2Cl)cc1
- AC50 [1]: 6.51 µM [falling, single point]
- AC50 [2]: 16.4 µM [falling, partial curve]
